Data source: PubChem BioAssay AID1159618 (Peter MacCallum Cancer Centre, 2016)
The deposit covers 153 reagents; shown is an unselected part. 111 of them (73%) were called active. 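Migration not corrected for cell number; some knock-downs also lowered nuclei counts, so reduced closure may partly reflect fewer cells.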 Further read-outs or replicates are left out here. Not stated in the record: the time to read-out.

Screen: 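Retest earlier hits for effects on endothelial scratch closure in two cell types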 (follow-up of hits)
Cell system: human HMBEC blood microvascular and HDLEC dermal lymphatic endothelial cells
Knock-down reagent: siRNA pool against human genes, 40 nM
Measurement: 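Scratch wounds imaged automatically; migrated area scaled to mock-transfected mean and averaged across two replicates, with per-well nuclei counts recorded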
Scale: migration vs mock, HMBEC and migration vs mock, HDLEC: higher = more migration into the scratch
Rule for the call: 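Called impaired when migration drops below 0.65 of mock in HMBEC, HDLEC or both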
Calls: active = migration impaired; inactive = no change

With SGK3 (GeneID 23678) [SID313053838], how do the results read?
cell type with impaired migration: impaired only in blood endothelial cells; migration vs mock, HMBEC: 0.563; migration vs mock, HDLEC: 0.806; call: active

What is on record for CRABP2 (GeneID 1382) [SID313053767]?
cell type with impaired migration: no change in either cell type; migration vs mock, HMBEC: 0.882; migration vs mock, HDLEC: 0.901; call: inactive

With SLC22A25 (GeneID 387601) [SID313053898], how do the results read?
cell type with impaired migration: impaired in both blood and lymphatic cells; migration vs mock, HMBEC: 0.638; migration vs mock, HDLEC: 0.586; call: active

With CALM2 (GeneID 805) [SID313053760], what was measured?
cell type with impaired migration: no change in either cell type; migration vs mock, HMBEC: 0.736; migration vs mock, HDLEC: 0.95; call: inactive

With AKT3 (GeneID 10000) [SID313053823], how do the results read?
cell type with impaired migration: no change in either cell type; migration vs mock, HMBEC: 0.863; migration vs mock, HDLEC: 1.01; call: inactive

For ABCC3 (GeneID 8714) [SID313053814], how do the results read?
cell type with impaired migration: impaired only in lymphatic endothelial cells; migration vs mock, HMBEC: 0.729; migration vs mock, HDLEC: 0.508; call: active

For STYK1 (GeneID 55359) [SID313053857], what was measured?
cell type with impaired migration: impaired in both blood and lymphatic cells; migration vs mock, HMBEC: 0.357; migration vs mock, HDLEC: 0.389; call: active

What did the screen give for KANSL1 (GeneID 284058) [SID313053895]?
cell type with impaired migration: impaired only in blood endothelial cells; migration vs mock, HMBEC: 0.619; migration vs mock, HDLEC: 0.867; call: active

What is on record for RNASE7 (GeneID 84659) [SID313053873]?
cell type with impaired migration: impaired in both blood and lymphatic cells; migration vs mock, HMBEC: 0.534; migration vs mock, HDLEC: 0.554; call: active

What did the screen give for ACP2 (GeneID 53) [SID313053751]?
cell type with impaired migration: impaired in both blood and lymphatic cells; migration vs mock, HMBEC: 0.394; migration vs mock, HDLEC: 0.542; call: active

Which result is listed for EPOR (GeneID 2057) [SID313053773]?
cell type with impaired migration: impaired in both blood and lymphatic cells; migration vs mock, HMBEC: 0.548; migration vs mock, HDLEC: 0.592; call: active

Which result is listed for ELP2 (GeneID 55250) [SID313053856]?
cell type with impaired migration: no change in either cell type; migration vs mock, HMBEC: 0.717; migration vs mock, HDLEC: 0.814; call: inactive

With LRRC57 (GeneID 255252) [SID313053894], what does the deposit list?
cell type with impaired migration: impaired only in lymphatic endothelial cells; migration vs mock, HMBEC: 0.917; migration vs mock, HDLEC: 0.573; call: active

What is on record for UHMK1 (GeneID 127933) [SID313053882]?
cell type with impaired migration: impaired only in blood endothelial cells; migration vs mock, HMBEC: 0.606; migration vs mock, HDLEC: 0.689; call: active

What is on record for KATNIP (GeneID 23247) [SID313053834]?
cell type with impaired migration: no change in either cell type; migration vs mock, HMBEC: 0.744; migration vs mock, HDLEC: 0.781; call: inactive

For CKM (GeneID 1158) [SID313053764], what does the deposit list?
cell type with impaired migration: no change in either cell type; migration vs mock, HMBEC: 0.738; migration vs mock, HDLEC: 0.713; call: inactive

What is on record for UBE2O (GeneID 63893) [SID313053862]?
cell type with impaired migration: impaired only in blood endothelial cells; migration vs mock, HMBEC: 0.497; migration vs mock, HDLEC: 0.696; call: active

What is on record for PI4KA (GeneID 5297) [SID313053791]?
cell type with impaired migration: no change in either cell type; migration vs mock, HMBEC: 0.938; migration vs mock, HDLEC: 0.793; call: inactive

What did the screen give for ATM (GeneID 472) [SID313053755]?
cell type with impaired migration: impaired only in blood endothelial cells; migration vs mock, HMBEC: 0.518; migration vs mock, HDLEC: 0.869; call: active

Which result is listed for IL1B (GeneID 3553) [SID313053780]?
cell type with impaired migration: impaired in both blood and lymphatic cells; migration vs mock, HMBEC: 0.475; migration vs mock, HDLEC: 0.554; call: active

With CYP1A1 (GeneID 1543) [SID313053769], what does the deposit list?
cell type with impaired migration: impaired in both blood and lymphatic cells; migration vs mock, HMBEC: 0.595; migration vs mock, HDLEC: 0.37; call: active

Which result is listed for CDC42 (GeneID 998) [SID313053763]?
cell type with impaired migration: impaired only in lymphatic endothelial cells; migration vs mock, HMBEC: 0.743; migration vs mock, HDLEC: 0.246; call: active

What did the screen give for STRC (GeneID 161497) [SID313053892]?
cell type with impaired migration: impaired only in blood endothelial cells; migration vs mock, HMBEC: 0.583; migration vs mock, HDLEC: 0.718; call: active

For CCS (GeneID 9973) [SID313053822], what does the deposit list?
cell type with impaired migration: impaired only in blood endothelial cells; migration vs mock, HMBEC: 0.501; migration vs mock, HDLEC: 0.815; call: active

What did the screen give for EFNA3 (GeneID 1944) [SID313053772]?
cell type with impaired migration: impaired only in blood endothelial cells; migration vs mock, HMBEC: 0.649; migration vs mock, HDLEC: 0.823; call: active

For CASK (GeneID 8573) [SID313053810], how do the results read?
cell type with impaired migration: no change in either cell type; migration vs mock, HMBEC: 0.828; migration vs mock, HDLEC: 0.789; call: inactive

With CATSPERT (GeneID 151254) [SID313053888], what does the deposit list?
cell type with impaired migration: no change in either cell type; migration vs mock, HMBEC: 0.729; migration vs mock, HDLEC: 0.705; call: inactive

How did the screen score PGBD5 (GeneID 79605) [SID313053870]?
cell type with impaired migration: no change in either cell type; migration vs mock, HMBEC: 0.917; migration vs mock, HDLEC: 0.753; call: inactive

4 of these entries, set out differently.
gene	PubChem SID	cell type with impaired migration	migration vs mock, HMBEC	migration vs mock, HDLEC	call
CDC42 (GeneID 998)	SID313053763	impaired only in lymphatic endothelial cells	0.743	0.246	active
STRC (GeneID 161497)	SID313053892	impaired only in blood endothelial cells	0.583	0.718	active
CCS (GeneID 9973)	SID313053822	impaired only in blood endothelial cells	0.501	0.815	active
EFNA3 (GeneID 1944)	SID313053772	impaired only in blood endothelial cells	0.649	0.823	active
